Several values for one entry are separate records, joined by “and”; a condition that tells them apart may be missing. Equal values may be shown once. The campaign covered roughly 59,000 compounds. About 6,500 (11%) were called active. Inconclusive results, whose numbers are uncertain, are shown with a selection of clear calls. No stated cut-off is given here; in the data, active means max dye-equivalent concentration above about 10 nM; inconclusive means mostly about 1.1 nM to 9.6 nM; inactive means weaker than that.
Experiment: qHTS Assay for Spectroscopic Profiling in A350 Spectral Region
Conditions: Compound autofluorescence, 340/450 nm, Alexa 350 dye-equivalents; hits give high values

Row | SMILES | max dye-equivalent concentration
1 | CC(Oc1ccc(NC(=O)c2ccco2)cc1)C(=O)N1c2ccccc2CC1C (stereo unspecified) | inactive
2 | COc1ccc(OC)c(S(=O)(=O)N2CCC(C(=O)Nc3ccc(C)c(C)c3)CC2)c1 | inactive
3 | Cc1cccc(C)c1NC(=O)CCCSc1nnc(-c2ccco2)n1-c1ccccc1 | inactive
4 | Cc1cc(C)n(-c2nc(NCc3cccnc3)c3c4c(sc3n2)COC(C)(C)C4)n1 | active: 1.1e-07 M
5 | CC(C)NC(=O)CSc1nnc(-c2ccc(C(C)(C)C)cc2)n1C | inactive
6 | CCC(=O)N1CCCc2cc(S(=O)(=O)N3CCCc4ccccc43)ccc21 | inactive
7 | CCOc1ccccc1C(=O)Nc1nccs1 | inconclusive: 5.1e-09 M
8 | COCCn1c(=O)[nH]c2cc(C(=O)N3CCN(Cc4ccc5c(c4)OCO5)CC3)ccc2c1=O | inconclusive: 9.2e-09 M
9 | CC(C)OCCCN1CN(S(=O)(=O)c2ccccc2)c2nc3ccccc3nc21 | active: 2.3e-08 M
10 | N#Cc1c2c(c(N3CCN(CCO)CC3)n3c1nc1ccccc13)CCCC2 | active: 2.3e-08 M
11 | Cc1ccc2cc3cc(C(=O)NCCC(C)C)oc3nc2c1 | active: 2.9e-08 M
12 | CCN(CC)CCCN1C(=O)C(=O)/C(=C(/O)c2ccc3c(c2)CC(C)O3)C1c1cccnc1 (stereo unspecified) | inconclusive: 1.1e-09 M
13 | Cc1nn2c(N)csc2nc1=O | active: 1.7e-08 M
14 | COCC(=O)N1CCC[C@@]2(CCN(Cc3cc(C(F)(F)F)cc(C(F)(F)F)c3)C2)C1 | inactive
15 | C=CCOC(=O)Nc1c(C(=O)OC)[nH]c2ccc(Cl)cc12 | inconclusive: 8.3e-09 M
16 | COc1cc(NC(=O)c2ccco2)c(OC)cc1NC(=O)Nc1cccc(Cl)c1 | inconclusive: 3.7e-09 M
17 | Cc1cc(C(=O)Nc2ccc(N3CCOCC3)cc2)c2ccccc2n1 | inconclusive: 1.3e-09 M
18 | COC(=O)c1[nH]c2cccc(C)c2c1NC(=O)CN1CCCc2ccccc21 | inconclusive: 1.1e-09 M
19 | COc1ccccc1NC(=O)N(c1c(N)n(Cc2ccccc2)c(=O)[nH]c1=O)C1CCCC1 | inconclusive: 1.6e-09 M
20 | O=C1Nc2cc3c(cc2Sc2ccccc21)OCCO3 | inactive
21 | O=C(Nc1ccccc1)N1CC[C@@]2(CCCN(C(=O)c3cnccn3)C2)C1 | inactive
22 | Fc1ccc2c(Cl)c(-c3nnc(-c4cccs4)o3)sc2c1 | active: 2e-07 M
23 | COC(=O)c1n[nH]c2ccccc12 | inconclusive: 5.9e-09 M

Row | SMILES | max dye-equivalent concentration
24 | COC(=O)c1ccc(CSc2nc(C(F)(F)F)c3c(c2C#N)CCC3)o1 | active: 2.7e-08 M
25 | COc1cccc(-c2nc(NCc3cnc(C)cn3)c3ccccc3n2)c1 | inactive
26 | Cn1c(=O)c2c(nc(SCC(=O)Nc3ccc(N4CCOCC4)c(Cl)c3)n2C)n(C)c1=O | inactive
27 | CN(Cc1ccccc1)c1nc2c(c(=O)[nH]c(=O)n2C)n1C | inactive
28 | COC(=O)c1sccc1NC(=O)c1ccc(OC)cc1 | inconclusive: 1.3e-09 M
29 | O=C(OCCN1CCCC1)C1(c2ccccc2)CCCC1 | inactive
30 | COc1cc2c(cc1O)C(SC)=NC(C)(C)C2 | inconclusive: 1.4e-09 M
31 | Cc1nc2cnc(N3CCN(C)CC3)nc2n(C2CC2)c1=O | inactive
32 | CC(=O)NC(Cc1ccc(F)cc1)C(=O)O (stereo unspecified) | inactive
33 | O=C(CCc1nc(-c2ccccc2)no1)N1CCCC1 | inactive
34 | CC(=O)CC(=O)NC(=NC1CCCCC1)Nc1nc(C)cc(C)n1 | active: 1.2e-08 M
35 | Cc1cc(C)n(-c2nc(NCCCO)c3c4c(sc3n2)CCCC4)n1 | active: 5.2e-07 M
36 | C=C(C)CSc1nnc([C@H](CCSC)NC(=O)OC(C)(C)C)o1 | inconclusive: 6e-09 M
37 | O=c1c2c3nc4ccccc4nc3n(-c3cccc(F)c3)c2ncn1Cc1ccc2c(c1)OCO2 | inconclusive: 4.2e-09 M
38 | CCOC(=O)N1CCN(S(=O)(=O)c2ccc(C(=O)Nc3nc4c(s3)CC(C)CC4)cc2)CC1 (stereo unspecified) | inconclusive: 6.7e-09 M
39 | Cc1nc2cc(C(=O)O)ccc2s1 | inactive
40 | O=S(=O)(NCC1CCCO1)c1ccc(Br)s1 (stereo unspecified) | inconclusive: 2.4e-09 M
41 | O=c1[nH]c(CN2CCN(c3ccccc3)CC2)nc2ccccc12 | inconclusive: 3.5e-09 M
42 | CCn1nc(-c2ccccc2)c2nc3ccccc3nc21 | inconclusive: 1.5e-09 M
43 | Cc1cc(NCCCN2CCOCC2)n2nc(C)c(-c3ccccc3)c2n1 | inconclusive: 1.9e-09 M
44 | CN(C)c1ccc(-c2nc(NCc3cccnc3)c3ccccc3n2)cc1 | inactive
45 | COc1ccc(S(=O)(=O)N(C)CC(=O)NCc2cccnc2)cc1C | active: 8.7e-06 M
46 | Fc1ccccc1N1CCN(Cc2nc(-c3ccc(Cl)cc3Cl)no2)CC1 | inactive

Row | SMILES | max dye-equivalent concentration
47 | CCCOc1ccc2c(C)c(CC(=O)OC)c(=O)oc2c1 | active: 5.1e-08 M
48 | CCOC(=O)c1cnc(SCC(=O)c2ccc3c(c2)OCCO3)nc1N | inactive
49 | COc1ccc(-c2nc3ccccc3s2)cc1O | inactive
50 | COc1cccc(C(=O)CN2C(=O)C(C)(C)Oc3ccc(C(=O)N4CCCCCC4)cc32)c1 | inactive
51 | COc1ccc(Cl)cc1N=Cc1c(O)cc(C)oc1=O | inconclusive: 2.8e-09 M
52 | O=C(Nc1cccnc1)c1ccc2snnc2c1 | inconclusive: 1.9e-09 M
53 | CN(Cc1ccco1)c1cc(-c2ccc3c(c2)OCO3)ncn1 | inconclusive: 2.4e-09 M
54 | CCN(CC)C(=O)CSc1nnc(-c2cc(OC)cc(OC)c2)o1 | inconclusive: 1.8e-09 M
55 | Cn1c(C(C#N)C2=C(Cl)C(=O)N(c3ccccc3)C2=O)nc2ccccc21 (stereo unspecified) | active: 3e-08 M
56 | CCOC(=O)c1oc2nc(C(C)C)c3c(c2c1N)CC(C)(C)OC3 | active: 8.3e-07 M
57 | COc1ccc2[nH]c(=S)[nH]c2c1 | inactive
58 | CC(C)(C)C1=C[C@@H](CO)C[C@@H](CO)C1 | inconclusive: 4.7e-09 M
59 | Cn1c(=O)c(CCc2ccccc2)nc2cnc(N3CCOCC3)nc21 | active: 1.1e-08 M
60 | CCn1c(=O)cc(OCC(=O)NCc2cccnc2)c2ccccc21 | inconclusive: 4.9e-09 M
61 | CN(C)c1ccc(-n2cc3c(=O)n(C)c(=O)n(C)c3c2)cc1 | inconclusive: 7.5e-09 M
62 | CCC(O)CNc1nc(-n2nc(C)cc2C)nc2sc3c(c12)CCCC3 (stereo unspecified) | inconclusive: 8.9e-09 M
63 | COC(=O)C(NS(C)(=O)=O)(c1c(C)[nH]c2ccccc12)C(F)(F)F (stereo unspecified) | inconclusive: 2.3e-09 M
64 | COc1ccc(C2=Nn3c(nnc3-c3ccccn3)SC2)cc1 | inconclusive: 2.9e-09 M
65 | CC[C@@H]1OC(=O)[C@H](C)[C@H](O[C@@H]2C[C@](C)(OC)[C@H](O)[C@H](C)O2)[C@H](C)[C@H](O[C@@H]2O[C@@H](C)C[C@@H](N(C)C)[C@@H]2O)[C@](C)(O)C[C@H](C)C(=NOCOCCOC)[C@H](C)[C@H](O)[C@]1(C)O | inactive
66 | Cc1cc(C)cc(OCC(=O)Nc2cccc(-c3nnc(-c4ccco4)o3)c2)c1 | inactive
67 | COC(=O)c1[nH]c2ccc(F)cc2c1NC(=O)CCN1CCN(C(=O)c2ccco2)CC1 | inconclusive: 3e-09 M
68 | CCOc1ccc(OCC)c(NC(=O)C2CCN(S(=O)(=O)c3cccc4nonc34)CC2)c1 | inactive
69 | Cc1ccc(Nc2nc(C(=O)N3CCC(C(=O)NCCN4CCOCC4)CC3)cs2)cc1 | inactive

Quoted from above, nos. 51–68
Row | SMILES | max dye-equivalent concentration
51 | COc1ccc(Cl)cc1N=Cc1c(O)cc(C)oc1=O | inconclusive: 2.8e-09 M
52 | O=C(Nc1cccnc1)c1ccc2snnc2c1 | inconclusive: 1.9e-09 M
53 | CN(Cc1ccco1)c1cc(-c2ccc3c(c2)OCO3)ncn1 | inconclusive: 2.4e-09 M
54 | CCN(CC)C(=O)CSc1nnc(-c2cc(OC)cc(OC)c2)o1 | inconclusive: 1.8e-09 M
55 | Cn1c(C(C#N)C2=C(Cl)C(=O)N(c3ccccc3)C2=O)nc2ccccc21 (stereo unspecified) | active: 3e-08 M
56 | CCOC(=O)c1oc2nc(C(C)C)c3c(c2c1N)CC(C)(C)OC3 | active: 8.3e-07 M
57 | COc1ccc2[nH]c(=S)[nH]c2c1 | inactive
58 | CC(C)(C)C1=C[C@@H](CO)C[C@@H](CO)C1 | inconclusive: 4.7e-09 M
59 | Cn1c(=O)c(CCc2ccccc2)nc2cnc(N3CCOCC3)nc21 | active: 1.1e-08 M
60 | CCn1c(=O)cc(OCC(=O)NCc2cccnc2)c2ccccc21 | inconclusive: 4.9e-09 M
61 | CN(C)c1ccc(-n2cc3c(=O)n(C)c(=O)n(C)c3c2)cc1 | inconclusive: 7.5e-09 M
62 | CCC(O)CNc1nc(-n2nc(C)cc2C)nc2sc3c(c12)CCCC3 (stereo unspecified) | inconclusive: 8.9e-09 M
63 | COC(=O)C(NS(C)(=O)=O)(c1c(C)[nH]c2ccccc12)C(F)(F)F (stereo unspecified) | inconclusive: 2.3e-09 M
64 | COc1ccc(C2=Nn3c(nnc3-c3ccccn3)SC2)cc1 | inconclusive: 2.9e-09 M
65 | CC[C@@H]1OC(=O)[C@H](C)[C@H](O[C@@H]2C[C@](C)(OC)[C@H](O)[C@H](C)O2)[C@H](C)[C@H](O[C@@H]2O[C@@H](C)C[C@@H](N(C)C)[C@@H]2O)[C@](C)(O)C[C@H](C)C(=NOCOCCOC)[C@H](C)[C@H](O)[C@]1(C)O | inactive
66 | Cc1cc(C)cc(OCC(=O)Nc2cccc(-c3nnc(-c4ccco4)o3)c2)c1 | inactive
67 | COC(=O)c1[nH]c2ccc(F)cc2c1NC(=O)CCN1CCN(C(=O)c2ccco2)CC1 | inconclusive: 3e-09 M
68 | CCOc1ccc(OCC)c(NC(=O)C2CCN(S(=O)(=O)c3cccc4nonc34)CC2)c1 | inactive

Continuation.

Row | SMILES | max dye-equivalent concentration
70 | CCCC(OC(=O)CN1C(=O)COc2ccccc21)C(=O)NC1CCCC1 (stereo unspecified) | inconclusive: 3e-09 M
71 | O=C(NCCC1=CCCCC1)c1ccc(=O)oc1 | inconclusive: 4.2e-09 M
72 | C[N+]1(C)CC[C@@H](OC(=O)[C@@](O)(c2ccccc2)C2CCCC2)C1 | inconclusive: 4.2e-09 M
73 | Cc1nn(Cc2ccccc2)c(C)c1CCC(=O)O | inactive
74 | CCCn1c(=O)c2ccccc2n2c(SCc3cc(=O)n4ccsc4n3)nnc12 | inconclusive: 8e-09 M
75 | Cc1cc(NC(=O)c2cc(-c3cccs3)on2)no1 | inconclusive: 5.4e-09 M
76 | COCc1[nH]nc2c1C1(CCSCC1)C(C#N)=C(N)O2 | inactive
77 | Cn1cc(-c2nc3cncnc3n(CCN)c2=O)c2ccccc21 | inconclusive: 2.4e-09 M
78 | Cc1cccc(N2C(=O)SC(N(C)c3ccccc3)C2=O)c1 (stereo unspecified) | inactive
79 | CN1C(=O)C(O)(C2COC(C)(C)CC2=O)c2cc(Br)ccc21 (stereo unspecified) | inconclusive: 3.3e-09 M
80 | CCCS(=O)(=O)NCCc1cc2c(OC)ccc(OC)c2[nH]c1=O | inconclusive: 6.2e-09 M
81 | Cc1ccc(C(=O)C2=C(O)C(=O)N(Cc3ccccc3)C2c2cccnc2)o1 (stereo unspecified) | inconclusive: 1.8e-09 M
82 | Cc1ccc2nc(SCC(=O)NCc3ccco3)c(C#N)cc2c1 | inconclusive: 2.5e-09 M
83 | O=C(O)CNCCc1ccccc1 | inactive
84 | O=C(CC1(O)C(=O)N(Cc2ccc3c(c2)OCO3)c2ccccc21)c1ccccc1 (stereo unspecified) | inactive
85 | CC(=O)/C(C[N+]1(C)CCCCC1)=N\O | inconclusive: 1.6e-09 M
86 | O=C(NC1CS(=O)(=O)CC1NCc1ccccc1)c1ccccc1 (stereo unspecified) | inconclusive: 2.9e-09 M
87 | CC(=O)c1c(C)[nH]c(C(=O)NCc2ccccc2Cl)c1C | inconclusive: 1.7e-09 M
88 | COc1cc2ccccc2cc1C(=O)Nc1ccc(S(=O)(=O)Nc2cc(C)on2)cc1 | inconclusive: 4.3e-09 M
89 | CCOCCCNCC(=O)N1CCN(S(=O)(=O)c2ccc(C)cc2)CC1 | inconclusive: 1.2e-09 M
90 | c1ccc2c(N3CCCC3)nc(-c3ccncc3)nc2c1 | inconclusive: 6.2e-09 M
91 | CC(C)(C)c1ccc([C@@H](O)CCCN2CCC(C(O)(c3ccccc3)c3ccccc3)CC2)cc1 | inconclusive: 4.4e-09 M and inconclusive: 5e-09 M
